The list shows a part of the results. Further columns of the screen follow, without active or inactive calls. The list favours compounds with an active or inconclusive main result. Words in brackets tell the shape of the fitted curve; partial curves, single points and poor fits give uncertain potencies.
Experiment: qHTS Assay for Lipid Storage Modulators in Drosophila S3 Cells;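 for cell number change: cells counted by Cell Tracker Red CMTPX staining in the red channel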
Settings: BODIPY lipid droplet fluorescence, 18-24 h; for cell number change: measured here: cell count max response, cells fed with added oleic acid
In short: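 Laser-scanning cytometry quantifies lipid droplet accumulation (500–530 nm total intensity; droplet/cell object ratio) in oleic acid-fed (400 uM added) Drosophila S3 cells treated with a concentration series. 20 uM Triacsin C defined 100% inhibition.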

[1] = measured here: cell number channel AC50, cells fed with added oleic acid
[2] = measured here: lipid fluorescence (Fed channel) AC50, cells fed with added oleic acid

SMILES | cell number change | AC50 [1] | AC50 [2]
COc1ccc(-n2ccnc2)cc1 | 127% | – | –
CC(C)C(=O)N1CCN(CCN=CC2=C(O)CC(c3ccco3)CC2=O)CC1 (centres undefined) | – | 0.517 µM [falling, full curve] | 0.164 µM [falling, full curve, poor fit]
NS(=O)(=O)c1ccc(-c2ccc(C=C3C(=O)c4ccccc4C3=O)o2)cc1 | 18.9% | – | –
O=C(NC1C2CCCC1CN(C1CC1)C2)c1ccc(Cl)cc1 (centres undefined) | – | – | 29.1 µM [falling, single point]
O=c1[nH]cnc2nc3n(c12)CCCCC3 | -6.9% | – | 4.11 µM [falling, partial curve]
O=C(COC(=O)c1c(F)cccc1Cl)NC(=O)Nc1ccc2c(c1)OCCO2 | 17% | – | 23.1 µM [rising, partial curve]
CCN(CC)C(=O)c1ccc(-c2nnc(Nc3cccc(O)c3)c3ccccc23)cc1 | -32.8% | 13 µM [falling, partial curve, poor fit] | 18.4 µM [falling, single point]
CC(=O)Nc1nc2ccc(S(=O)(=O)N3CCCCC3)cc2s1 | 2.96% | – | 0.00411 µM [rising, full curve, poor fit]
Cc1cc(C)cc(NC(=O)CN(C)CC(=O)N(CC(C)C)c2c(N)n(CC(C)C)c(=O)[nH]c2=O)c1 | 13.5% | – | 29.1 µM [rising, single point]
CC[C@@H](C)[C@H](NC(=O)OCc1ccccc1)c1nnc([C@@H](NC(=O)OCc2ccccc2)[C@@H](C)CC)o1 | 1.47% | 5.17 µM [rising, partial curve, poor fit] | 4.61 µM [rising, partial curve, poor fit]
CC(C)CC(=O)NC(=S)Nc1ccc(S(=O)(=O)N2CCN(C)CC2)cc1 | – | 0.58 µM [falling, single point] | –
Cc1cc(C)c(S(=O)(=O)c2ccccc2C)c(SCC(C)C)n1 | -29.1% | 3.66 µM [rising, single point] | 29.1 µM [falling, single point]
O=C(Nc1cccc2cccnc12)c1cccc2ccccc12 | 111% | 18.4 µM [rising, partial curve] | 0.00517 µM [rising, full curve, poor fit]
COc1ccccc1S(=O)(=O)CC(O)COc1ccc(C#N)cc1 (centres undefined) | 44.9% | 3.26 µM [falling, single point] | 4.61 µM [falling, single point]
CN(C)CCCn1c(N)c(S(=O)(=O)c2ccccc2)c2nc3ccccc3nc21 | -9.94% | – | 6.51 µM [falling, single point]
CC(C)NC(=S)N/N=C1\CCCCC1C1CCCCC1 (centres undefined) | 19.2% | 0.58 µM [rising, full curve, poor fit] | 3.26 µM [rising, partial curve]
O=C(CSc1ccc2c(c1)OCCO2)Nc1ncccc1O | 6.56% | – | –
COc1ccc(/C=C/C(=O)N2CCCC2)cc1OC | 11.1% | – | –
CC(C)(C)c1ccc(OCCC(=O)NCC(c2cccs2)N2CCOCC2)cc1 (centres undefined) | -33.5% | 16.4 µM [falling, single point] | 18.4 µM [falling, single point]
COCCCNC(=O)c1c(F)c(F)c(F)c(F)c1F | -2.16% | – | –
O=C(NNc1cccc(Cl)c1)c1cccnc1Cl | 35% | 11.6 µM [rising, partial curve, poor fit] | –

SMILES | cell number change | AC50 [1] | AC50 [2]
CC(=O)Nc1ccc(NC2=Nc3ccccc3N3C2=Nc2c(c(C)nn2-c2ccccc2)C3c2ccccc2)cc1 (centres undefined) | -8.37% | – | –
N#Cc1c(C(F)(F)F)cc(=O)[nH]c1SCC(=O)O | 67% | – | –
c1ccc(Cn2ncc3c(N4CCCCC4)ncnc32)cc1 | -3.82% | – | 1.46 µM [falling, partial curve]
C=CCNC(=O)c1ccccc1NC(=O)c1ccc(Cl)c(S(=O)(=O)Nc2cc(C)ccc2C)c1 | -9.76% | – | 0.206 µM [falling, full curve, poor fit]
CCc1ccc(C(=O)COC(=O)c2cc([N+](=O)[O-])ccc2NCCO)cc1 | -31.8% | 29.1 µM [falling, single point] | –
CCOC(=O)C1CCCN(c2c(NCCCN3CCCC(C)C3)c(=O)c2=O)C1 (centres undefined) | -10.9% | – | –
Cc1ccc(-c2nn3c(C)nnc3c3ccccc23)cc1S(=O)(=O)N(C)CCO | -0.452% | – | 0.517 µM [rising, full curve, poor fit]
O=C(OCc1ccccc1Cl)C1CC(=O)N(Cc2ccco2)C1 (centres undefined) | -9.8% | – | 0.651 µM [falling, single point]
Cc1ccc(SCC(=O)NC(=O)c2ccc(S(=O)(=O)N(C)C)cc2)cc1C | -22.3% | – | 0.206 µM [falling, full curve, poor fit]
Cc1ccc(CSCCNC(=O)c2ccc(N(C)S(=O)(=O)c3ccccc3)cc2)cc1 | – | 2.06 µM [rising, partial curve, poor fit] | –
O=C(c1cc2ccccc2o1)N1CCN(C/C=C/c2ccccc2)CC1 | -10.9% | – | 6.51 µM [rising, single point]
CN(C)S(=O)(=O)c1ccc(C(=O)OCn2nnc3ccccc3c2=O)cc1 | -4.84% | – | 16.4 µM [falling, partial curve]
Cc1ccc(N(CC(=O)NCc2ccccc2)S(=O)(=O)c2c(C)noc2C)cc1 | 23.8% | – | 6.51 µM [falling, single point]
O=C(CSc1nnnn1C1CCCC1)Nc1ccccc1N1CCOCC1 | 15.3% | 6.51 µM [falling, single point] | 6.51 µM [falling, single point]
Cc1ccc(C)n1-c1ccc(C(=O)NC2CCN(Cc3ccccc3)CC2)cc1 | -11% | – | 1.03 µM [falling, full curve, poor fit]
COc1ccc2ccc(OCC(=O)Nc3cc(C)on3)cc2c1 | 13% | – | 1.16 µM [rising, full curve, poor fit]
Cc1cccnc1NC(=O)c1ccc(OCc2c(C)noc2C)cc1 | 22% | – | –
CC(C)n1nc(C(=O)Nc2nc3ccc(S(C)(=O)=O)cc3s2)c2ccccc2c1=O | 9.57% | – | –
CN(c1ccc(C(=O)NCc2cccs2)cc1)S(=O)(=O)c1ccccc1 | 6.92% | – | –
CCN(CC(=O)Nc1ccc(OC)cc1)C(=O)Cc1cccs1 | -0.81% | – | –
O=CN1CCN(C(=O)c2ccccc2Cl)CC1 | – | – | 20.6 µM [falling, partial curve]

In a second layout: results already given
SMILES,cell number change,AC50 [1],AC50 [2]
CC(=O)Nc1ccc(NC2=Nc3ccccc3N3C2=Nc2c(c(C)nn2-c2ccccc2)C3c2ccccc2)cc1 (centres undefined),-8.37%,–,–
c1ccc(Cn2ncc3c(N4CCCCC4)ncnc32)cc1,-3.82%,–,"1.46 µM [falling, partial curve]"
C=CCNC(=O)c1ccccc1NC(=O)c1ccc(Cl)c(S(=O)(=O)Nc2cc(C)ccc2C)c1,-9.76%,–,"0.206 µM [falling, full curve, poor fit]"
CCc1ccc(C(=O)COC(=O)c2cc([N+](=O)[O-])ccc2NCCO)cc1,-31.8%,"29.1 µM [falling, single point]",–
CCOC(=O)C1CCCN(c2c(NCCCN3CCCC(C)C3)c(=O)c2=O)C1 (centres undefined),-10.9%,–,–
O=C(OCc1ccccc1Cl)C1CC(=O)N(Cc2ccco2)C1 (centres undefined),-9.8%,–,"0.651 µM [falling, single point]"
Cc1ccc(SCC(=O)NC(=O)c2ccc(S(=O)(=O)N(C)C)cc2)cc1C,-22.3%,–,"0.206 µM [falling, full curve, poor fit]"
Cc1ccc(CSCCNC(=O)c2ccc(N(C)S(=O)(=O)c3ccccc3)cc2)cc1,–,"2.06 µM [rising, partial curve, poor fit]",–
CN(C)S(=O)(=O)c1ccc(C(=O)OCn2nnc3ccccc3c2=O)cc1,-4.84%,–,"16.4 µM [falling, partial curve]"
Cc1ccc(N(CC(=O)NCc2ccccc2)S(=O)(=O)c2c(C)noc2C)cc1,23.8%,–,"6.51 µM [falling, single point]"
CN(c1ccc(C(=O)NCc2cccs2)cc1)S(=O)(=O)c1ccccc1,6.92%,–,–
CCN(CC(=O)Nc1ccc(OC)cc1)C(=O)Cc1cccs1,-0.81%,–,–

Later entries.

SMILES | cell number change | AC50 [1] | AC50 [2]
O=c1oc2ccccc2n1CCc1ccccc1 | 47.9% | 11.6 µM [rising, partial curve, poor fit] | –
CCCC[C@H]1COCCS(=O)(=O)N1Cc1ccccc1F | -0.299% | – | –
COCCCN(C(=O)c1ccco1)c1nc(-c2cc(OC)ccc2OC)cs1 | -31% | 1.64 µM [falling, partial curve, poor fit] | 6.51 µM [falling, single point]
CC(=O)c1ccc(N2CCN(C(=O)c3ccc(OCc4c(C)noc4C)cc3)CC2)cc1 | -21.2% | – | –
OC(Cn1cncn1)c1ccc(Cl)cc1 (centres undefined) | 8.65% | – | –
COC(=O)c1c(C)oc2ccc(NS(=O)(=O)c3cccs3)cc12 | – | 2.31 µM [rising, partial curve] | –
Cc1ccc(OCC(=O)Oc2c(C)cccc2C)cc1 | 24.9% | – | 29.1 µM [rising, single point]
Cc1cccn2c(=O)c3cc(C#N)c(=N)n(CCN4CCOCC4)c3nc12 | -2.56% | – | 0.517 µM [rising, full curve]
CC(OC(=O)CNS(=O)(=O)c1ccc2ccccc2c1)C(=O)N(C)c1ccccc1 (centres undefined) | -15.3% | – | –
O=C(CCNC(=O)c1ccc([N+](=O)[O-])cc1)NC1CCCCCC1 | -2.94% | 0.092 µM [falling, full curve, poor fit] | 0.092 µM [falling, full curve, poor fit]
CC(C)c1ccc(/C=C/c2[nH]c(=O)[nH]c(=O)c2[N+](=O)[O-])cc1 | 15.5% | – | 1.84 µM [falling, partial curve]
CNC(=O)c1ccsc1NC(=O)CCS(=O)(=O)c1ccc(F)cc1 | 26.6% | 0.0259 µM [rising, full curve, poor fit] | 3.66 µM [rising, partial curve, poor fit]
O=C(Nc1ccc(-c2cc3ccccc3oc2=O)c(Cl)c1)c1cccnc1 | -35.4% | 23.1 µM [falling, single point] | –
CC(C)(C)NC(=O)N1CCN(c2nc3ccc(Cl)cc3s2)CC1 | -48.7% | 20.6 µM [falling, single point] | 23.1 µM [falling, single point]
COc1ccc(-n2c(C)nc3c(cnn3-c3ccc(C)c(C)c3)c2=O)cc1 | 13.9% | 0.00411 µM [rising, full curve, poor fit] | –
CC(=O)Oc1c(C)c(=O)n(C)c2ccccc12 | 2.2% | – | 0.116 µM [falling, full curve, poor fit]
Cc1ccc2nc(NC3=NCN(C4CCCCC4)CN3)nc(C)c2c1 | -9.05% | – | 3.66 µM [falling, partial curve]
COc1cc(NC(=O)c2cc(OC)c(OC)c(OC)c2)c(OC)cc1NC(=O)CN1CCCCC1 | – | – | 0.116 µM [rising, full curve, poor fit]
CNCc1ccccc1Sc1ccc(OC)cc1 | -15.4% | – | 1.84 µM [falling, partial curve, poor fit]
Cc1nn2c(COc3ccc(NC(=O)c4ccccc4Cl)cc3)nnc2c2ccccc12 | 2.09% | – | 10.3 µM [rising, partial curve, poor fit]

Source: PubChem BioAssay AID2685 (National Center for Advancing Translational Sciences (NCATS), 2010)
